Data as given in PubChem BioAssay AID445 (National Center for Advancing Translational Sciences (NCATS), 2006).
The list shows a part of the results. The main result of the screen is listed elsewhere. These columns were measured beside it and carry no call. Compounds called inactive in the main read-out are mostly missing here. Potencies come from curve fits of mixed quality, noted in brackets.

Assay: IkB Signaling
Details: ABC-DLBCL IkBa-CBG/CBR dual luciferase ratio (green luciferase fused to IkBa over red control in OCI-Ly3 lymphoma cells), 4 h
How it was run: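 Curves were fitted separately to fusion (green), unfused (red) and ratio luminescence, then classed by r2, magnitude and activity. Cells: OCI-Ly3, 4 h compound plus doxycycline at 37C; 10 uM MG-132 defined full response.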

[1] = measured here: control luc red channel unless noted

Cc1ccc(Cn2c(Cc3ccccc3)nc3ccccc32)cc1
AC50 [1]: 20 µM [falling, partial curve]

O=C(c1ccc(Cl)c(Cl)c1)N(Cc1ccco1)c1ccc(O)cc1
AC50 [1]: 15.8 µM [falling, partial curve]

O=C(Nc1cccc(-c2nc3ccccc3[nH]2)c1)c1cccc(NC(=O)c2ccco2)c1
AC50 (measured here: IkB-luc green channel): 7.94 µM [rising, single point]
AC50 (measured here: control luc red channel): 0.631 µM [falling, full curve]

CCOC(=O)c1ccccc1NC(=O)CCc1c(C)nc2c(c1C)c(=O)n(C)c(=O)n2C
AC50 [1]: 39.8 µM [falling, single point]

O=C(NC1CC(=O)N(c2ccc(F)cc2)C1)C(c1ccccc1)c1ccccc1 (stereo unspecified)
AC50 [1]: 39.8 µM [falling, single point]

Cc1ccc(NC(=O)CSC(N)=O)cc1Cl
AC50 [1]: 12.6 µM [falling, partial curve]

COc1ccc(-c2noc(CSc3nnc(-c4ccncc4)n3-c3ccc(OC)cc3)n2)cc1
AC50 [1]: 39.8 µM [falling, single point]

COc1ccccc1NC(=O)C1=C(C)Nc2nc(SCc3ccccc3)nn2C1c1cccs1 (stereo unspecified)
AC50 [1]: 3.98 µM [falling, full curve]

O=C(NCCc1ccc(Cl)cc1)c1ccc2c(c1)N(Cc1ccccc1)C(=O)CS2
AC50 [1]: 12.6 µM [falling, partial curve]

COc1ccc(N(CC(=O)Nc2ccc(OC)c(Cl)c2)S(=O)(=O)c2c(C)noc2C)cc1
AC50 [1]: 10 µM [falling, partial curve]

CC(=O)c1ccc(NC(=O)c2nn(C)c3c2COc2ccccc2-3)cc1
AC50 [1]: 20 µM [falling, single point]

Oc1c(C(Nc2ccccn2)c2ccccn2)ccc2cccnc12 (stereo unspecified)
AC50 [1]: 3.16 µM [falling, partial curve]

CCOc1ccccc1NC(=O)N1CCC(N2CCN(Cc3ccccc3)C(=O)C2=O)CC1
AC50 [1]: 0.00631 µM [rising, full curve]

CC(Oc1ccccc1F)C(=O)N1CCC(c2nc3ccccc3o2)CC1 (stereo unspecified)
AC50 [1]: 25.1 µM [falling, single point]

O=c1c(O)c(-c2cccs2)oc2ccccc12
AC50 [1]: 25.1 µM [rising, partial curve] [measured here: IkB-luc green channel]

CCC1CCCCN1C(=O)CSc1nc(-c2ccc(OC)cc2)cc(C(F)(F)F)n1 (stereo unspecified)
AC50 [1]: 31.6 µM [falling, single point]

CCn1cc2nc(SCC(=O)Nc3cccc(Cl)c3C)n(Cc3ccc(Cl)cc3)c(=O)c2n1
AC50 [1]: 5.01 µM [falling, full curve]

O=C(C1CC1)N1CCc2cc(Br)cc(S(=O)(=O)Nc3ccc(C(F)(F)F)cc3)c21
AC50 [1]: 3.16 µM [falling, full curve]

COc1ccc(NC(=O)C(=O)NCCc2csc3nc(-c4ccccc4C)nn23)cc1
AC50 [1]: 39.8 µM [falling, single point]

CCOc1ccc(-n2nc3ccc(NC(=O)COc4ccccc4C)cc3n2)cc1
AC50 [1]: 39.8 µM [falling, single point]

COc1ccc(S(=O)(=O)N(CCc2ccccc2)CC(=O)NCc2ccc(C)cc2)cc1
AC50 [1]: 6.31 µM [falling, partial curve]

CCCC(=O)Nc1nnc(S(=O)(=O)N(C)c2ccccc2)s1
AC50 [1]: 0.316 µM [rising, full curve]

COc1ccccc1CCNC(=O)C1CCN(c2nc3ccccc3nc2C(F)(F)F)CC1
AC50 [1]: 0.02 µM [rising, full curve, poor fit]

C=CCn1c(CCC(=O)O)ccc1-c1ccc(OC)cc1
AC50 [1]: 25.1 µM [falling, partial curve]

COC(=O)c1ccccc1NC(=O)CSc1c2c(nc3ccc(Cl)cc13)CCCC2
AC50 [1]: 10 µM [falling, partial curve]

Cc1cc(C)c(S(=O)(=O)Nc2ccc(-c3ccc(N4CCCCC4)nn3)cc2)cc1C
AC50 [1]: 3.16 µM [falling, full curve]

O=C(NCC(c1cccnc1)N1CCN(Cc2ccccc2)CC1)C(=O)Nc1ccc(F)cc1 (stereo unspecified)
AC50 [1]: 1.58 µM [rising, partial curve]

CCc1ccc(S(=O)(=O)Nc2ccc3oc(C)c(C(=O)OCCOC)c3c2)cc1
AC50 [1]: 31.6 µM [falling, single point]

Cc1cccc(NC(=O)c2cc3c(C)nn(-c4ccccc4)c3s2)c1
AC50 [1]: 20 µM [falling, partial curve]

O=C(NCc1ccc2c(c1)CCN2C(=O)c1ccncc1)c1cccc(F)c1
AC50 [1]: 31.6 µM [falling, single point]

O=C1CN(c2nc3ccccc3n3cnnc23)CC(=O)N1CCc1ccccc1
AC50 [1]: 15.8 µM [falling, partial curve]

CCOC(=O)c1[nH]c(C)c(C(=O)NCc2ccccc2Cl)c1C
AC50 [1]: 15.8 µM [falling, partial curve]

Nc1nc2ccccc2n1C(=O)CCc1ccccc1
AC50 [1]: 10 µM [falling, partial curve]

COc1ccc(NC(=O)c2ccc(-c3nc(CSc4ccccc4)c(C)o3)cc2)c(OC)c1
AC50 [1]: 10 µM [falling, partial curve]

CCCCN(c1ccccc1)S(=O)(=O)c1cc2c3c(c1)C(C)C(=O)N3CCC2 (stereo unspecified)
AC50 [1]: 15.8 µM [falling, partial curve]

CCN1C(=O)c2ccccc2S(=O)c2ccc(C(=O)N3CCN(c4cccc(Cl)c4)CC3)cc21 (stereo unspecified)
AC50 [1]: 31.6 µM [falling, single point]

COCCn1c(=S)[nH]c2cc(C(=O)N3CCc4ccccc43)ccc2c1=O
AC50 [1]: 3.98 µM [falling, partial curve]

COC(=O)c1cc(NC(=O)CCc2c(C)nc3nc(C)nn3c2C)cc(C(=O)OC)c1
AC50 [1]: 15.8 µM [falling, partial curve]

CCOC(=O)c1ccc(NC(=O)c2cc3ccccc3o2)cc1
AC50 [1]: 0.1 µM [falling, full curve]

O=C(Cc1ccc(F)cc1)NCCc1csc2nc(-c3ccc(Cl)cc3)nn12
AC50 [1]: 39.8 µM [falling, single point]
